Screen size: about 52,000 sequences; about 210 (0.4%) were called active.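 Rule for the calls: active = gene whose silencing raises cell survival under the drug, median off-target-corrected z-score across its silencing RNAs 2 or more; inactive = the rest.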 Some of the results follow.
Assay: Resistance to Poly (ADP-Ribose) Polymerase inhibitor: Gene Identification via Genome-wide siRNA Screen
Conditions: mouse BRCA2 R2336H ES cells, olaparib, CellTiter-Glo viability; hits give high values
Summary of the method: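 Genome-wide siRNA screen (3 siRNAs/gene, 20 nM) in mouse ES cells carrying hypomorphic BRCA2 R2336H; olaparib 500 nM added 48 h post-transfection, CellTiter-Glo viability 72 h later. Normalized to plate-median negative control; MAD z-scores, gene median, seed-adjusted.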
With CCAAAGAUACCAUAGGAUUTT against BC036563 the z-score was inactive: 1.63. With “GGAAGAAGUAGACCUGUCUTT against 0610011L14Rik” the z-score was inactive: -2.12. With GGAUCAGAAGAAGUUUAUUTT against Parn the z-score was inactive: 0.837. For GGAAUUGAAUGGAAAGUGUTT against Ggta1, the z-score was inactive: -0.934. In the case of “GGAAUCAACGGAUGAAAUUTT against 4732493F09Rik”, the z-score was inactive: -1.16. With GGUCUAUGAGAUGUUUUCUTT against Cyp2a4 the z-score was inactive: 0.123. In the case of GGGUAGCUACGAAGAGGAATT against Ros1, the z-score was inactive: -0.158. In the case of “GGUUCUCAUGUUGUUGGCUTT against 1600014C10Rik”, the z-score was inactive: -0.116. For CGAGAGUAGCUUGUUGCUGTT against Rhobtb3, the z-score was inactive: 0.999. With GCACAACAUUAAAUGCAGATT against Hspa4 the z-score was inactive: -0.25. With GGAAGAAACUAACCACAACTT against Zfpn1a1 the z-score was inactive: 0.351. For GGAGUGAAGACUUUGAGAATT against Kcnn2, the z-score was inactive: -0.234. For GGUGAAGUCCAGUAAUAAGTT against Nfrkb, the z-score was inactive: 0.449. With CCUCAUCAAAAUUUACCAUTT against Msr2 the z-score was inactive: -0.388. With GGGACUCCUCAAUGCUUAUTT against Nxf3 the z-score was inactive: 0.0566. In the case of GGAAACUCGUACUUUAUCATT against Igf2r, the z-score was inactive: 1.13. In the case of CCACUGUUAUCAAGAUCCCTT against Olfr1176, the z-score was inactive: -0.0434. With GGAACAUCUAUUUGUCAUGTT against Olfr310 the z-score was inactive: -0.42. For GGAUAGUCUCCUCAAAGAATT against Rg9mtd3, the z-score was inactive: -1.71. In the case of GCUGGAAAAAAAGUUGGAUTT against Diap1, the z-score was inactive: 0.155. With GGUAGUGGUACACCUUAAGTT against Ctsc the z-score was inactive: -1.94. For “GGACAACACUAUCAACAAATT against 1700028P05Rik”, the z-score was inactive: 1.43. In the case of GGAGCAUAUAUAGAAUUAGTT against Mrps22, the z-score was inactive: 0.698. For GGGUAUGUGAGUUGGAAGATT against Inpp4a, the z-score was inactive: -0.123. In the case of CGACAGACAUCGCUAUAAUTT against Flj39647, the z-score was inactive: -2.11. For CCGCAUGUUUGGAAAGGAUTT against Cabp4, the z-score was inactive: 0.0393. For GGAUUCUGCCCAAUGAGGATT against Inpp5d, the z-score was inactive: -1.43. In the case of GGUGUUGUUGCUGAUACCUTT against Rbms3, the z-score was inactive: 0.807. For “GGUCAAGUCAUCAGAAAUGTT against 4632417N05Rik”, the z-score was inactive: 0.787. In the case of GUACUAGCUAAUUGGGCCATT against Speer4b, the z-score was inactive: -0.0527. In the case of “GGUGAAAACCCUAACAGUCTT against A130007F10Rik”, the z-score was inactive: 0.653. For GGGAAACAGCAAAAUGAAATT against Bcas1, the z-score was inactive: 0.465. With GGAAUAGCAUAAACACAGUTT against Epm2aip1 the z-score was inactive: 1.37. With GCAGUAUGCACACCUGGAGTT against BC002230 the z-score was inactive: 0.318. In the case of “GCUACAUGGGCCUCACAUATT against 1700008E09Rik”, the z-score was inactive: -1.12. For GCUAUCGGCGUGAGUAACCTT against Gk2, the z-score was inactive: 1.17. For GGAAAAAAUCAAGAACAUCTT against Tmc2, the z-score was inactive: 0.101. For GGAGAAGUUCAAAGUGAGGTT against B3gnt3, the z-score was inactive: 0.554. For “GGACAAAAACAAACAUGAGTT against E030013G06Rik”, the z-score was inactive: 0.548. For CCUAUGCUUUUUUGUAAGATT against Il13ra2, the z-score was inactive: 0.29. For “GGAAAGACACAAGUGGAAATT against 5330421F07Rik”, the z-score was inactive: 1.54. In the case of GGUCUUCAUACCUGUUCUATT against Zik1, the z-score was inactive: 0.218. With CCAAGAUAGUCCCUAUCCCTT against Scamp3 the z-score was inactive: 0.00183. In the case of GGAAAUUGUUUGAGAGGUATT against Edn3, the z-score was inactive: -0.925. For GCGAGUUGCUCUACGUCAUTT against Rfrp, the z-score was inactive: 1.19. In the case of CCACAUGUUCAGUUCUAAATT against Ddhd1, the z-score was inactive: 0.875. With GGUUUUGAGCCUCAAAAAATT against Col6a2 the z-score was inactive: -0.6. For GGAAUAGAAGCACUGUGUGTT against Brs3, the z-score was inactive: -1.37. For GGAAGAGAUAAUGAACUUCTT against Dspp, the z-score was inactive: 0.814. For GGAAAGUUGAUUCUUGUGUTT against Bmpr1a, the z-score was inactive: 0.227. With “GCUUGUUCAGGAAAUGAAATT against C630016B22Rik” the z-score was inactive: -0.39. With “GGCAGAUGAUCCCGGGAUUTT against 4933402J24Rik” the z-score was inactive: -2.24. With GACUAGAACAACAGAAAGUTT against Vax2 the z-score was inactive: 1.24. In the case of “GCAGCGGAGGGUCAAAGAATT against A030010B05Rik”, the z-score was inactive: -1.1. For GGGCCAAUUCAACUUUGAUTT against Umpk, the z-score was inactive: -0.682. In the case of GGAUAAACGGGACAAAGCATT against Hcls1, the z-score was inactive: 0.746. In the case of CCUGAUUCUUGUCAAAAACTT against MGC92959, the z-score was inactive: 0.235. With GGCAAAGUAGAAGCUAAACTT against Pycrl the z-score was inactive: 1.88. For CCUUUUUCAUUGGCUGCCCTT against Psors1c2, the z-score was inactive: -0.895. With “GGAUCUGCUGAAUAAGUGCTT against 1500011H22Rik” the z-score was inactive: -1.37. In the case of “GGCAGAAAUGAAAACACUUTT against 2610524G09Rik”, the z-score was inactive: -0.553. With CCGGCAUUUACCAUAAUAATT against Mcm2 the z-score was inactive: -2.17. For GGUUGCAUUGGGAACUUUCTT against Kai1, the z-score was inactive: -1.21. For GCGAACAACAAUGCUUAAATT against Mga, the z-score was inactive: 0.92. For CGGACUUGUUUUUUAGUCUTT against Zfp469, the z-score was inactive: -0.127. For GGCCUUGUAGGAAGCAUUGTT against Slc37a4, the z-score was inactive: -0.0475. For GGUGUAUGUCACCCUGACCTT against Sag, the z-score was inactive: 0.889. For GGAGGACCAAGAGGACAUUTT against Tbl3, the z-score was inactive: -2.19. For “GCCAGUGGAUGUUCAGAAUTT against 4931417A20”, the z-score was inactive: 0.611. For GGCAGUUUGAGAUUGUGUCTT against Thbs2, the z-score was inactive: -0.244. With GGAAUUAACAGAGAAGAAATT against Rgs13 the z-score was inactive: 0.323. For GGAGCUGGAUUCAUUGACGTT against Chi3l4, the z-score was inactive: 0.804. For GGUGGAGACACUGAAGGUUTT against Akap1, the z-score was inactive: -2.34. With GGGAAAUUGGUGCUACAUGTT against Eln the z-score was inactive: 0.281. With GGGACGACCAUAUUUAUUUTT against Psma2 the z-score was inactive: -1.94. For GGGUCAUUGAUAUCUUAAGTT against Bcl3, the z-score was inactive: -1.36. In the case of GCUCAAACAGAUACACGGATT against Ap2a2, the z-score was inactive: 0.288. In the case of “GGAUGACAAGGUUAAGCUATT against D130060C09Rik”, the z-score was inactive: 0.214. With “GGUACGCUCCAGGAAUAUCTT against 2400003N08Rik” the z-score was inactive: -2.21. With GGACUUCCUAAGCAACUCATT against Mycs the z-score was inactive: -0.994. For GGAAACCAACUUCAGCCUGTT against Gfra1, the z-score was inactive: -0.491. For CCUUCCACAAAUACUCAGGTT against S100a4, the z-score was inactive: 0.151. For “GGCUGCAAGGACAAGAGAATT against 1600002K03Rik”, the z-score was inactive: -1.51. In the case of CCAGUUUAUCACAUAACCUTT against Wasl, the z-score was inactive: 0.101. For GCUGUCUCAAUCACCCUAATT against Olfr1427, the z-score was inactive: -0.472. For CCAAAGUAUGCACUUUACATT against AA959934, the z-score was inactive: -0.799. In the case of “GUCAAAUGGAGCAGAGCCATT against 1700009B20Rik”, the z-score was inactive: -1.27. With GCCGUCUUGUGUGUAUCAATT against Olfr1342 the z-score was inactive: 0.00416. With GCUGAAAUCAGAAGCUAACTT against Casc3 the z-score was inactive: 0.845. For GGGAGAUGUUUGUUUUCAATT against Mmp16, the z-score was inactive: 0.314. With CGGCAGAUACUGAUACUGCTT against Actn1 the z-score was inactive: 1.4. In the case of UUCACUUUUUCACUGGAAUTT against Olfr1228, the z-score was inactive: 0.817. For CCAUCUUGAAUUACCUCCGTT against Tnfaip1, the z-score was inactive: -1.5. In the case of GGAUGAAGAUGGAGAUCUUTT against Tfg, the z-score was inactive: 0.194. With GGAUUCUGCUAGCAGUUCATT against Csng the z-score was inactive: -3.24. For GGACUCCCUUACUUUAUUATT against Mertk, the z-score was inactive: 0.525. For “GGUAACAGUCCUGAAAUACTT against 2010321J07Rik”, the z-score was inactive: -0.351. For GCCUAACCUGCAUCAGUCATT against Olfr689, the z-score was inactive: 0.358. With GGCUACGCUGACUAUGUCUTT against Creg the z-score was inactive: 0.619. In the case of GGUAGCUAAGAAGUUUAUUTT against Dck, the z-score was inactive: 0.358. With CCCGUCCUCUCAAAAACUATT against Bcl2l14 the z-score was inactive: 0.021. With UGUGACUAUUGUUACUGUGTT against Olfr1512 the z-score was inactive: 0.039. For GGCAGAGACAAAGAAACUUTT against Trap1, the z-score was inactive: -0.655. For “GCAUUGUAAGUUGAAAACATT against 0610033I05Rik”, the z-score was inactive: 0.449.

From PubChem BioAssay AID1347423 (Functional Genomics Laboratory (NCATS/FGL), 2020)
